Source: patent US20130280275A1
No constants are given. Whether binding was seen depends on the method and setting. Some entries that bind do so weakly or less than the wild type. Blank lines part the entries; values can stand above or below the binder they belong to.

The chains behind the UniProt entries cited, without tags or fusion partners. Residues count along the entry.
UniProt P43489, residues 29-277: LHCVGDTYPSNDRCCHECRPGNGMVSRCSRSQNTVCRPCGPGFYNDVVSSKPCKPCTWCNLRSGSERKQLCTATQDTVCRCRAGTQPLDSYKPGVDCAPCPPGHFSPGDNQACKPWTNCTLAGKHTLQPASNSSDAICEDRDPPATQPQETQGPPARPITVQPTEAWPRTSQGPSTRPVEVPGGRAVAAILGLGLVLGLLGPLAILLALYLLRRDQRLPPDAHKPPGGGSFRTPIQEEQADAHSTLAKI

Columns and labels:
human OX40 (human) [1] = biological target: human OX40 (human) (UniProt P43489); experiment: FACS binding assay on L/hOX40 cells, PE goat anti-human IgG
human OX40 (human) [2] = biological target: human OX40 (human) (UniProt P43489); experiment: FACS binding assay on L/hOX40 cells
human OX40 (human) [3] = biological target: human OX40 (human) (UniProt P43489); experiment: FACS binding assay on L/OX40 cells, PE goat anti-human IgG
human OX40 (human) [4] = biological target: human OX40 (human) (UniProt P43489); experiment: flow cytometry on mixed SUPM2 and SUPM2-hOX40 cells
human OX40 (human) [5] = biological target: human OX40 (human) (UniProt P43489); experiment: cell ELISA on dried L-hOX40 cells, anti-mouse IgG Fc HRP
human OX40 (human) [6] = biological target: human OX40 (human) (UniProt P43489); experiment: flow cytometry on mixed L and L-hOX40 cells, 0.5 µg purified antibody, PE anti-mouse IgG

binding (human OX40 (human) [1]): binds
binding (human OX40 (human) [2]): binds
B1: Humanized 106-222 IgG1/kappa monoclonal antibody (antibody, V domains shown)
VH: QVQLVQSGSELKKPGASVKVSCKASGYTFTDYSMHWVRQAPGQGLKWMGWINTETGEPTYADDFKGRFVFSLDTSVSTAYLQISSLKAEDTAVYYCANPYYDYVSYYAMDYWGQGTTVTVSS
VL: DIQMTQSPSSLSASVGDRVTITCKASQDVSTAVAWYQQKPGKAPKLLIYSASYLYTGVPSRFSGSGSGTDFTFTISSLQPEDIATYYCQQHYSTPRTFGQGTKLEIK

binding (human OX40 (human) [3]): binds
B2: Humanized 119-122 IgG1/kappa monoclonal antibody (antibody, V domains shown)
VH: EVQLVESGGGLVQPGGSLRLSCAASEYEFPSHDMSWVRQAPGKGLELVAAINSDGGSTYYPDTMERRFTISRDNAKNSLYLQMNSLRAEDTAVYYCARHYDDYYAWFAYWGQGTMVTVSS
VL: EIVLTQSPATLSLSPGERATLSCRASKSVSTSGYSYMHWYQQKPGQAPRLLIYLASNLESGVPARFSGSGSGTDFTLTISSLEPEDFAVYYCQHSRELPLTFGGGTKVEIK

binding (human OX40 (human) [1]): binds
B3: Chimeric 106-222 IgG1/kappa monoclonal antibody (antibody, V domains shown)
VH: QIQLVQSGPELKKPGETVKISCKASGYTFTDYSMHWVKQAPGKGLKWMGWINTETGEPTYADDFKGRFAFSLETSASTAYLQINNLKNEDTATYFCANPYYDYVSYYAMDYWGHGTSVTVSS
VL: DIVMTQSHKFMSTSVRDRVSITCKASQDVSTAVAWYQQKPGQSPKLLIYSASYLYTGVPDRFTGSGSGTDFTFTISSVQAEDLAVYYCQQHYSTPRTFGGGTKLEIK

binding (human OX40 (human) [4]): binds
binding (human OX40 (human) [5]): binds
binding (human OX40 (human) [6]): binds
B4: mouse 119-122 (antibody, V domains shown)
VH: EVQLVESGGGLVQPGESLKLSCESNEYEFPSHDMSWVRKTPEKRLELVAAINSDGGSTYYPDTMERRFIISRDNTKKTLYLQMSSLRSEDTALYYCARHYDDYYAWFAYWGQGTLVTVSA
VL: DIVLTQSPASLAVSLGQRATISCRASKSVSTSGYSYMHWYQQKPGQPPKLLIYLASNLESGVPARFSGSGSGTDFTLNIHPVEEEDAATYYCQHSRELPLTFGAGTKLELK

binding (human OX40 (human) [3]): binds
B5: Chimeric 119-122 IgG1/kappa monoclonal antibody (antibody, V domains shown)
VH: B4 VH
VL: B4 VL
